Drawing on patent publication US9409961B2 (Hoffmann-La Roche Inc., priority 2012, dated 2016), this text covers isolated mass and isolated yield for 34 substances.

Data set [1] can be described thus: peptide made by a vendor (Fmoc solid-phase peptide synthesis; Fmoc Rink Amide MBHA resin; HBTU or DIC, HOBT). The settings on record: whole synthesis, TFA.
Data set [2] can be described thus: general procedure: Fmoc solid-phase peptide synthesis; Fmoc Rink Amide MBHA resin; HBTU or DIC, HOBT. The conditions noted are these: whole synthesis, TFA.
Setting [3] is: scale of the general procedure 0.25 mmol.

Square brackets hold non-standard residues; d marks the D form. Nle = CCCC[C@H](N)C(=O)O

On to Ac-GAAEAAARVYDLGLRRLRQRRYLRRELLRF-NH2, for which, in data set [1] (scale 0.3 mmol), the isolated mass was 21 mg and the isolated yield is reported as 2.3%.

In data set [2], Ac-MANLAYWLLALFVYRWTDLRLFKKRPKP-NH2 displayed an isolated mass of 81.6 mg. For the same substance, the isolated yield in data set [2] (setting [3]) came out at 8%.

The substance Ac-YDREFLLDFQF-NH2 registered an isolated mass in data set [2] of 69 mg. This substance also gave an isolated yield in data set [2] (setting [3]) of 17%.

Regarding “Ac-KRYDREFLLAFQF[Nle]RRLRQRRRLRRERVRA-NH2”, the isolated mass in data set [2] worked out at 44 mg. Besides, in data set [2] (setting [3]), the isolated yield is recorded as 3%.

For “Ac-KRYDREFLLAFQF[Nle]VYDLGLRRLRQRRRLRR-NH2”, in data set [1] (scale 0.25 mmol), the isolated mass worked out at 17 mg and the isolated yield is reported as 2.6%.

In data set [1] (scale 0.25 mmol), Ac-MANLGYWLLALFVYMWTDLLLFKKRPKP-NH2 came in with an isolated mass of 100 mg and an isolated yield of 11.5%.

Consider Ac-MVKSKIYSWILLLFFAMWSDVGLCKKRPKP-NH2, for which, in data set [1] (scale 0.25 mmol), the isolated mass came to 87 mg and the isolated yield is reported as 9.6%.

With Ac-LLALFVYMWTDLRLFKKRPKP-NH2, in data set [2], the isolated mass is 137 mg. Moreover, the isolated yield in data set [2] (setting [3]) was 17%.

As for Ac-WLLALFVYMWTDLRLFKKRPKP-NH2, the isolated mass in data set [2] is recorded as 96 mg. In addition, the isolated yield in data set [2] (setting [3]) was determined as 11%.

As to Ac-MVKYKIGSLLLFLFVAMWSDVGLCKKRPKP-NH2, in data set [1] (scale 0.25 mmol), the isolated mass is on record as 53 mg and the isolated yield was 6%.

For the substance Ac-KRYDREFLLAFQF[Nle]-NH2, the isolated mass in data set [2] is listed as 60 mg. Further, the isolated yield in data set [2] (setting [3]) turned out to be 12%.

Ac-YNREFLLDFQF[Nle]-NH2 gave an isolated mass in data set [2] of 18 mg. Also, the isolated yield in data set [2] (setting [3]) is given as 3%.

Ac-NLAYWLLALFVYMWTDLRLFKKRPKP-NH2 had an isolated mass in data set [2] of 93 mg. Moreover, the isolated yield in data set [2] (setting [3]) was found to be 10%.

In data set [1] (scale 0.25 mmol), Ac-MVKSKYGSWILLLFVAMWSDVGLCKKRPKP-NH2 had an isolated mass of 128 mg and an isolated yield of 14.5%.

In turn, Ac-MANLAYWLLALFVYLWTDLRLFKKRPKP-NH2 returned an isolated mass in data set [2] of 7.6 mg. In addition, in data set [2] (setting [3]), the isolated yield worked out at 1%.

The substance Ac-KRFDREFLLAFQF[Nle]-NH2 gave an isolated mass in data set [2] of 64 mg. In data set [2] (setting [3]), the isolated yield is listed as 11%.

In data set [1] (scale 0.25 mmol), “Ac-KRYDREFLLAFQF[Nle]VYDLGLRRLRQRRRLRRERVRA-NH2” gave an isolated mass of 38.6 mg and an isolated yield of 3.3%.

In data set [2] (scale 0.25 mmol), Ac-MAKLKYWLLALFVYMWTDLLLFKKRPKP-NH2 gave an isolated mass of 197 mg and an isolated yield of 19%.

In the case of Ac-LAYWLLALFVYMWTDLRLFKKRPKP-NH2, in data set [2], the isolated mass was 120 mg. In data set [2] (setting [3]), this substance had an isolated yield of 1%.

In data set [2], Ac-MANLAYWLLALFVY[Nle]WTDLRLFKKRPKP-NH2 had an isolated mass of 9.7 mg. Further, the isolated yield in data set [2] (setting [3]) turned out to be 1%.

On to Ac-YWLLALFVYMWTDLRLFKKRPKP-NH2, for which the isolated mass in data set [2] is reported as 60 mg. This substance registered an isolated yield in data set [2] (setting [3]) of 7%.

As for Ac-MANLAYWLLALFVYKWTDLRLFKKRPKP-NH2, the isolated mass in data set [2] turned out to be 81.6 mg. Moreover, the isolated yield in data set [2] (setting [3]) was 8%.

Ac-GAAEAAAYVYDLLLRFLRQRRRLRRERVRA-NH2: in data set [1] (scale 0.25 mmol), the isolated mass is reported as 33 mg and the isolated yield was found to be 3.6%.

Regarding “Ac-Leu-Ala-Tyr-Trp-Leu-Leu-Ala-Leu-Phe-Val-Tyr-Met-Trp-Thr-Asp-Leu-Arg-Leu-t-Butyl-Ala-Lys-Lys-Arg-Pro-Lys-Pro-NH2”, the isolated mass in data set [2] is reported as 55 mg. In data set [2] (setting [3]), this substance registered an isolated yield of 6%.

In data set [2] (scale 0.25 mmol), Ac-MANLAYWLLALFVYMWTDLRLFKKRPKP-NH2 came in with an isolated mass of 73 mg and an isolated yield of 7%.

Consider Ac-ANLAYWLLALFVYMWTDLRLFKKRPKP-NH2, for which the isolated mass in data set [2] is reported as 71 mg. The substance further had an isolated yield in data set [2] (setting [3]) of 7%.

Consider Ac-LAYWLLALFVAMWTDLRLFKKRPKP-NH2, for which, in data set [2], the isolated mass amounted to 120 mg. For the same substance, the isolated yield in data set [2] (setting [3]) was 13%.

In turn, Ac-AYWLLALFVYMWTDLRLFKKRPKP-NH2 yielded an isolated mass in data set [2] of 74 mg. In data set [2] (setting [3]), this substance registered an isolated yield of 8%.

Consider Ac-LAYWLLALFVYMWTDLRLAKKRPKP-NH2, for which, in data set [2], the isolated mass is recorded as 46 mg. In addition, in data set [2] (setting [3]), the isolated yield is 5%.

“Ac-ARVYDLGLRRLRQRRRLRRERVRAKRYDREFLLAFQF[Nle]-NH2”: in data set [1] (scale 0.25 mmol), the isolated mass came to 6 mg and the isolated yield was determined as 0.5%.

Substance Ac-YDREFLLDFQF[Nle]-NH2 had an isolated mass in data set [2] of 128 mg. For the same substance, in data set [2] (setting [3]), the isolated yield worked out at 29%.

In data set [1] (scale 0.25 mmol), Ac-MYKSKILLWFLVLFVAMWSDVGLCKKRPKP-NH2 had an isolated mass of 85 mg and an isolated yield of 9.3%.

On to Ac-MANLAYWLLALFVYMFTDLRLFKKRPKP-NH2, for which, in data set [2], the isolated mass worked out at 48.7 mg. For the same substance, the isolated yield in data set [2] (setting [3]) was 55%.

Take Ac-YDREFLLDFQFM-NH2: the isolated mass in data set [2] is given as 5 mg. In addition, the isolated yield in data set [2] (setting [3]) is on record as 1%.
